Measured values: PubChem BioAssay AID194 (DTP/NCI, 2004)
The list is a part of this screen's results and no random one: it is rich in T/C values a quarter to a half above the control, in often repeated tests (any T/C) and in doses without a T/C. Further doses and runs are listed elsewhere. T/C gives the treated animals as a percentage of the vehicle group. Schedules are NCI's codes, taken here to give the interval after Q, in days (D) or hours (H), and the number of doses after X. Some doses have a count of surviving animals in place of a T/C: the source holds a T/C of zero for them, seemingly a mark for toxic or unscored doses. Some survivor counts are full or nearly so, which does not show that the dose was tolerated: the source hardly ever lists a survival T/C far under the control, and the zero likely stands for such cases as well. Survivors were counted at the toxicity check, usually on the fifth day, unless a day is given; later deaths do not show. Some doses were run more than once; their values stand side by side, smallest first. Where survival is the endpoint, the PubChem record calls one and a half times the control and up active, and a quarter to a half above the control has no call in these data; cut-offs in other NCI protocols can differ. Signs of the kind (2×) stand for listed records that agree.

System: BDF1 mice, B16 melanoma s.c., survival/tumor T/C
Assay: NCI In Vivo Anticancer Drug Screen. Data for tumor model B16 Melanoma (subcutaneous) in B6D2F1 (BDF1) mice
Procedure: The antitumor activity of compounds was measured in mice bearing transplantable tumors. Survival or tumor size were measured and the results are expressed as the measurement made in the treated group (T) divided by the measurement made in the vehicle treated control group (C). The tumor model used in this assay is B16 Melanoma (subcutaneous) in B6D2F1 (BDF1) mice

[1] = T/C endpoint: median survival time, dose: 0.13 mg/kg/injection, schedule: Q01DX009 (ip), vehicle: saline, higher T/C = longer survival
[2] = T/C endpoint: median survival time, dose: 0.25 mg/kg/injection, schedule: Q01DX009 (ip), vehicle: saline, higher T/C = longer survival
[3] = T/C endpoint: median survival time, dose: 1.0 mg/kg/injection, schedule: Q01DX009 (ip), vehicle: saline, higher T/C = longer survival
[4] = T/C endpoint: median survival time, dose: 1.0 mg/kg/injection, schedule: Q08DX002 (ip), vehicle: saline, higher T/C = longer survival
[5] = T/C endpoint: median survival time, dose: 2.0 mg/kg/injection, schedule: Q08DX002 (ip), vehicle: saline, higher T/C = longer survival
[6] = T/C endpoint: median survival time, dose: 4.0 mg/kg/injection, schedule: Q08DX002 (ip), vehicle: saline, higher T/C = longer survival

## CCN(CC)CCNc1ccc(CO)c2sc3ccccc3c(=O)c12
T/C endpoint: median survival time, dose: 50.0 mg/kg/injection, schedule: Q01DX005 (ip), vehicle: water, higher T/C = longer survival
  T/C: 130 % of control
T/C endpoint: median survival time, dose: 75.0 mg/kg/injection, schedule: Q01DX005 (ip), vehicle: water, higher T/C = longer survival
  T/C: 126 % of control
T/C endpoint: median survival time, dose: 200.0 mg/kg/injection, schedule: Q04DX003 (ip), vehicle: water, higher T/C = longer survival
  survivor count: 3 of 10
T/C endpoint: median survival time, dose: 300.0 mg/kg/injection, schedule: Q01DX001 (ip), vehicle: water, higher T/C = longer survival
  survivor count: 3 of 10
T/C endpoint: median survival time, dose: 300.0 mg/kg/injection, schedule: Q04DX003 (ip), vehicle: water, higher T/C = longer survival
  survivor count: 1 of 10
T/C endpoint: median survival time, dose: 450.0 mg/kg/injection, schedule: Q01DX001 (ip), vehicle: water, higher T/C = longer survival
  survivor count: 0 of 10
T/C endpoint: median survival time, dose: 450.0 mg/kg/injection, schedule: Q04DX003 (ip), vehicle: water, higher T/C = longer survival
  survivor count: 0 of 10
T/C endpoint: median survival time, dose: 675.0 mg/kg/injection, schedule: Q01DX001 (ip), vehicle: water, higher T/C = longer survival
  survivor count: 0 of 10

## C1CN1c1nc(N2CC2)nc(N2CC2)n1
T/C endpoint: median survival time, dose: 0.13 mg/kg/injection, schedule: Q01DX009 (ip), vehicle: saline with Tween-80, higher T/C = longer survival
  T/C: 137 % of control
[1]
  T/C: 96, 105, 107, 113 % of control
  survivor count: 6 of 6
T/C endpoint: median survival time, dose: 0.25 mg/kg/injection, schedule: Q01DX009 (ip), vehicle: saline with Tween-80, higher T/C = longer survival
  T/C: 127 % of control
[2]
  T/C: 95, 101, 111, 113, 123 % of control
  survivor count: 5 of 6 and 6 of 6
T/C endpoint: median survival time, dose: 0.5 mg/kg/injection, schedule: Q01DX009 (ip), vehicle: saline, higher T/C = longer survival
  T/C: 94, 98, 106, 110, 111, 125, 161 % of control
T/C endpoint: median survival time, dose: 0.5 mg/kg/injection, schedule: Q08DX002 (ip), vehicle: saline, higher T/C = longer survival
  T/C: 93, 96, 98 (2×), 106, 109, 134 % of control
[3]
  T/C: 86 and 92 % of control
  survivor count: 5 of 6 and 6 of 6
T/C endpoint: median survival time, dose: 1.0 mg/kg/injection, schedule: Q08DX002 (ip), vehicle: saline with Tween-80, higher T/C = longer survival
  survivor count: 4 of 6
[4]
  T/C: 88, 92, 108, 109, 117, 126 % of control
  survivor count: 6 of 6
[5]
  T/C: 86, 112, 113, 115, 127 % of control (2×)
  survivor count: 6 of 6
[6]
  T/C: 136 % of control
  survivor count: 2 of 6, 4 of 6, 5 of 6, 6 of 6
T/C endpoint: median tumor weight (est.), dose: 4.0 mg/kg/injection, schedule: Q08DX002 (ip), vehicle: saline, evaluated on day 14, higher T/C = larger tumour
  T/C: 142 % of control

## CCC1(O)CC2CN(CCc3c([nH]c4ccccc34)C(C(=O)OC)(c3cc4c(cc3OC)N(C)C3C(O)(C(N)=O)C(O)C5(CC)C=CCN6CCC43C65)C2)C1 (centres undefined) (tested in a mixture with another compound)
T/C endpoint: median survival time, dose: 2.7 mg/kg/injection, schedule: Q04DX003 (ip), vehicle: water, higher T/C = longer survival
  survivor count: 10 of 10
T/C endpoint: median survival time, dose: 4.0 mg/kg/injection, schedule: Q04DX003 (ip), vehicle: water, higher T/C = longer survival
  survivor count: 10 of 10
T/C endpoint: median survival time, dose: 6.0 mg/kg/injection, schedule: Q04DX003 (ip), vehicle: water, higher T/C = longer survival
  survivor count: 10 of 10
